The list shows a part of the results. These are further read-outs of the screen, such as a control signal, another cell line or another target. No call is given for them. Compounds called inactive in the main read-out are mostly missing here. Words in brackets tell the shape of the fitted curve; partial curves, single points and poor fits give uncertain potencies.
Test: qHTS Assay for Lipid Storage Modulators in Drosophila S3 Cells;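 as to cell number change: cells counted by Cell Tracker Red CMTPX staining in the red channel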
Conditions: BODIPY lipid droplet fluorescence, 18-24 h; for cell number change: measured here: cell count max response, cells fed with added oleic acid
Method in brief: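 Drosophila S3 cells loaded with oleic acid (400 uM, as added) and compounds at several concentrations; lipid droplets imaged by 488-nm laser-scanning cytometry, 500–530 nm intensity and object ratio to cell channel. Percent activity normalized to 20 uM Triacsin C.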

[1] = measured here: cell number channel AC50, cells fed with added oleic acid
[2] = measured here: lipid fluorescence (Fed channel) AC50, cells fed with added oleic acid

Row | SMILES | AC50 [1] | AC50 [2] | cell number change
1 | Cn1c(SCc2n[nH]c(=S)n2-c2ccccc2)nnc1-c1ccccc1 | 0.13 µM [rising, full curve, poor fit] | 0.146 µM [rising, full curve] | 
2 | Cc1ccc(NC(=O)CSc2nc(C)c(Cc3ccccc3)c(=O)[nH]2)cc1C |  | 6.51 µM [falling, single point] | 32.4%
3 | COc1ccccc1CNC(=O)c1ccc2nc(N3CCOCC3)sc2c1 |  | 6.51 µM [rising, single point] | -2.69%
4 | Cc1cc(C)cc(NC(=O)COC(=O)c2cc(=O)[nH]c(=O)[nH]2)c1 |  |  | 1.27%
5 | CCN(CC)c1ccc(NC(=O)/C=C/c2cc(Br)ccc2OC)cc1 |  | 18.4 µM [falling, single point] | -26.8%
6 | O=C(O)C1CC=CCC1C(=O)NCc1ccccc1 (stereo unspecified) | 18.4 µM [falling, single point] |  | -103%
7 | CCn1c(-c2csc(-c3ccccc3)n2)n[nH]c1=S |  | 0.731 µM [rising, full curve] | -14.2%
8 | CO/N=C/C(=N\Nc1ccc(OC)cc1)C(=O)c1ccc(OC)cc1 |  | 6.51 µM [rising, partial curve] | 
9 | Cc1ccc(CNC(=O)C2CCCN(S(=O)(=O)c3ccc(-n4cnnn4)cc3)C2)cc1 (stereo unspecified) | 13 µM [rising, partial curve] |  | 56.4%
10 | NCCCn1c(C(=O)c2cc(Cl)c(N)c(Cl)c2)c2ccc([N+](=O)[O-])cc2[n+]1[O-] |  |  | -25.5%
11 | COc1ccc(-c2nnc(SC(C)C(=O)Nc3cccc(Cl)c3)o2)cc1 (stereo unspecified) |  | 16.4 µM [rising, single point] | -2.49%
12 | O=C(O)CCC(=O)N1CCCC1 | 6.51 µM [rising, full curve, poor fit] |  | 37%
13 | COc1cc([N+](=O)[O-])cc(/C=N/NC(=O)c2ccc(C)nc2)c1O |  |  | -6.23%
14 | COC(=O)c1ccc(NC(=O)c2cccc(NC(=O)c3ccccc3)c2)cc1 |  |  | 25.4%
15 | CCOC(=O)CNC(=O)c1cc2c(=O)[nH]c3ccc(C)cc3c2s1 | 0.731 µM [rising, full curve] |  | 42.6%
16 | CCCN(CCC)S(=O)(=O)c1ccc(C(=O)NCc2ccco2)cc1 | 23.1 µM [falling, single point] | 29.1 µM [falling, single point] | -37.5%
17 | c1ccc(-c2ccccc2OCCN2CCOCC2)cc1 |  | 29.1 µM [rising, single point] | -0.733%
18 | CC[C@@]12C(=O)N(c3cccc(C)c3)C(=O)N1[C@H](c1ccc(OC)cc1)[C@@H]1C(=O)N(C(C)(C)C)C(=O)[C@@H]12 |  | 5.8 µM [rising, single point] | 13.5%
19 | NC(=O)c1cccc2c1-c1ccccc1/C2=N/NC(N)=S |  | 5.8 µM [falling, full curve] | 3.9%
20 | Cc1ccc(Nc2ncnc3c2oc2ccccc23)cc1 | 0.103 µM [rising, full curve, poor fit] | 0.164 µM [rising, full curve, poor fit] | 

Row | SMILES | AC50 [1] | AC50 [2] | cell number change
21 | CS(=O)(=O)N(CC(=O)Nc1ccc(Cl)c(Cl)c1)C1CCCCC1 |  | 29.1 µM [rising, single point] | -10.8%
22 | NS(=O)(=O)c1ccc(CNC(=O)Cc2c(F)cccc2Cl)cc1 |  | 0.82 µM [rising, full curve, poor fit] | 18.8%
23 | Clc1ccc(OCCOCCN2CCc3ccccc3C2)c(Cl)c1 | 14.6 µM [falling, single point] | 18.4 µM [falling, single point] | -30.4%
24 | CCOC(=O)c1c(C)[nH]c(C(=O)OCc2ccccc2F)c1C |  | 1.03 µM [rising, single point] | -6.25%
25 | COc1cc(NC(=O)C2COc3ccccc3O2)c(OC)cc1Cl (stereo unspecified) |  | 6.51 µM [rising, single point] | 23.3%
26 | OCCC1CN(C2CCSCC2)CCN1C1CCCC1 (stereo unspecified) |  | 29.1 µM [falling, single point] | 9.75%
27 | C=CCNC(=S)NNC(=O)C(CCC(C)C)CC(C)O (stereo unspecified) |  | 29.1 µM [falling, single point] | -3.31%
28 | CC(C)(C)NC(=O)C1CCCN(S(=O)(=O)c2cccc3cccnc23)C1 (stereo unspecified) | 1.16 µM [falling, single point] | 1.16 µM [falling, single point] | -0.506%
29 | CC(C)(C)Nc1nc(Cl)nc(NC2CCCCC2)n1 | 8.2 µM [falling, partial curve] | 29.1 µM [falling, single point] | -40.2%
30 | CN(NS(=O)(=O)c1ccc(Cl)cc1)c1nc(C(F)(F)F)nc2ccccc12 |  | 3.66 µM [falling, single point] | 
31 | O=C(Cn1cc(C(F)(F)F)cc(Cl)c1=O)NCC1COc2ccccc2O1 (stereo unspecified) |  | 5.8 µM [rising, full curve] | -3.89%
32 | CC1Cc2ccccc2N1C(=O)C1CCCN(S(=O)(=O)c2cccc3cccnc23)C1 (stereo unspecified) |  |  | 5.71%
33 | COc1cccc(NC(=O)CC(=O)c2ccccc2)c1 | 29.1 µM [rising, single point] | 29.1 µM [rising, single point] | 30.4%
34 | Cc1c(CCC(=O)NCCCn2ccnc2)c(=O)oc2c(C)c3oc4c(c3cc12)CCCC4 |  | 8.2 µM [falling, partial curve, poor fit] | -20.2%
35 | NC(=NCCc1ccc(Cl)cc1)NS(=O)(=O)c1ccccc1 |  | 29.1 µM [rising, single point] | 14%
36 | Cc1nn(CC(=O)N2CCOCC2)c(=O)c2ccccc12 |  | 2.59 µM [rising, full curve] | 
37 | Cc1cc(NC(=O)C(C)Oc2ccc(Cl)cc2Cl)n(-c2ccccc2)n1 (stereo unspecified) |  | 20.6 µM [rising, partial curve] | 13.8%
38 | Cc1ccc(-n2nc3c(c2NC(=O)c2cccs2)CSC3)cc1 | 20.6 µM [rising, partial curve, poor fit] |  | 148%
39 | COc1ccccc1CC1(C)NC(=O)N(CC(=O)N2CCc3ccccc3C2)C1=O (stereo unspecified) |  |  | -4.33%
40 | COc1ccccc1-c1nc(C#N)c(NCCCn2ccnc2)o1 | 0.082 µM [rising, full curve, poor fit] | 0.082 µM [rising, full curve, poor fit] | 

As entered above:
Value of `COc1ccccc1-c1nc(C#N)c(NCCCn2ccnc2)o1` under AC50 [1]: 0.082 µM [rising, full curve, poor fit]
Value of `CC1Cc2ccccc2N1C(=O)C1CCCN(S(=O)(=O)c2cccc3cccnc23)C1` (stereo unspecified) under cell number change: 5.71%
Value of `COc1ccccc1CC1(C)NC(=O)N(CC(=O)N2CCc3ccccc3C2)C1=O` (stereo unspecified) under cell number change: -4.33%

Going on with the list.

Row | SMILES | AC50 [1] | AC50 [2] | cell number change
41 | C=CCn1c(-c2ccc(Cl)cc2)cnc1SC(C)C(N)=O (stereo unspecified) | 0.164 µM [falling, full curve, poor fit] | 6.51 µM [falling, partial curve] | -18.5%
42 | CC(C)N=C1NN=C(c2cccs2)CS1 |  | 2.59 µM [falling, single point] | -23.8%
43 | CCOc1cccc(=O)c2c(C)n(C)c(C)c12 | 6.51 µM [rising, single point] |  | 
44 | O=C(/C=C/c1ccccc1)NCC(=O)N/N=C/c1ccco1 | 18.4 µM [rising, partial curve, poor fit] | 5.8 µM [rising, full curve] | 41.1%
45 | O=C(NNC(=S)Nc1cccc(C(F)(F)F)c1)c1ccccc1Cl |  | 0.82 µM [rising, full curve, poor fit] | 11.1%
46 | Cn1c(N)c(C(=O)CSc2nc3ccccc3n2-c2ccccc2)c(=O)n(C)c1=O |  | 0.82 µM [rising, single point] | -6.12%
47 | O=C(O)C1CC(O)CN1S(=O)(=O)c1cccs1 (stereo unspecified) |  | 6.51 µM [falling, single point] | -16.3%
48 | Cc1[nH]ccc(=O)c1Oc1ncc(C(F)(F)F)cc1Cl | 0.00461 µM [falling, full curve, poor fit] | 1.3 µM [falling, full curve] | -24.2%
49 | Cc1c(NC(=O)COc2c(F)c(F)c(F)c(F)c2F)c(=O)n(-c2ccccc2)n1C |  |  | 24.4%
50 | NC(=O)COc1ccc(C(=O)NCC2(N3CCOCC3)CCCCC2)cc1 |  | 0.0231 µM [falling, full curve, poor fit] | 19.4%
51 | O=C(Nc1ccc2c(c1)OCO2)C1CCCN1C(=O)Nc1ccccc1 (stereo unspecified) |  | 29.1 µM [rising, single point] | 6.3%
52 | CCOc1ccc2nc(SCCNS(=O)(=O)c3ccccc3)sc2c1 | 6.51 µM [rising, full curve] | 1.64 µM [rising, partial curve, poor fit] | 81.1%
53 | COc1ccc(C(=O)Nc2cc(C)c3c(=O)oc4ccccc4c3n2)cc1 | 6.51 µM [rising, partial curve] |  | 52.7%
54 | Oc1c(N=Nc2ccc(F)cc2)ccc2ccccc12 |  | 11.6 µM [falling, single point] | 
55 | OC1(C(F)(F)F)CC(c2ccc3ccccc3c2)=NO1 (stereo unspecified) |  | 0.00461 µM [falling, full curve, poor fit] | -24.8%
56 | COc1ccc(C(=O)COC(=O)C(CCCCN2C(=O)C3C4C=CC(C4)C3C2=O)N2C(=O)C3C4C=CC(C4)C3C2=O)cc1 (stereo unspecified) |  | 5.17 µM [rising, single point] | 3.92%
57 | O=C(Cn1c2c(c(-c3ccccc3)cc1=O)CCCC2)N1CCCCCC1 |  | 0.731 µM [falling, full curve, poor fit] | -18%
58 | CCC1CSC(Nc2ccc(C(=O)/C=C/c3ccc(OC)c(OC)c3)cc2)=N1 (stereo unspecified) | 2.31 µM [rising, single point] | 6.51 µM [rising, single point] | 9.89%
59 | CCOC(=O)NC(=O)c1cn(Nc2ncc(Cl)cc2C(F)(F)F)c(=O)[nH]c1=O | 0.58 µM [falling, full curve] |  | -51.9%
